Some of these results come from one statement about several compounds together.
System: HeLa cells
Assay: Potentiation Factor (PF50): MMS growth inhibition of HeLa cells, SRB assay
Assay type: cell-based
Settings: compound at 200 nM, in the presence of methyl methanesulfonate (MMS)

Row | SMILES | mean PF50 (ratio of IC50 of control cell growth divided by IC50 of cell growth + PARP inhibitor)
1 | O=c1[nH]nc(Cc2ccc(F)c(-c3ccc(NS(=O)(=O)CC4CCCCC4)cc3)c2)c2ccccc12 [Compound 242] | greater than 2
2 | O=c1[nH]nc(Cc2ccc(F)c(-c3ccc(NS(=O)(=O)CC4CCOC4)cc3)c2)c2ccccc12 (centres unmarked) [Compound 243] | greater than 2
3 | O=c1[nH]nc(Cc2ccc(F)c(-c3ccc(NS(=O)(=O)CC4CCOCC4)cc3)c2)c2ccccc12 [Compound 244] | greater than 2
4 | O=c1[nH]nc(Cc2ccc(F)c(-c3ccc(NS(=O)(=O)CC4CC4)cc3)c2)c2ccccc12 [Compound 248] | greater than 2
5 | O=c1[nH]nc(Cc2ccnc(-c3ccc(NS(=O)(=O)CC4CCOC4)cc3)c2)c2ccccc12 (centres unmarked) [Compound 252] | greater than 2
6 | CCCCS(=O)(=O)Nc1ccc(-c2cc(Cc3n[nH]c(=O)c4c3CCCC4)ccc2F)cc1 [Compound 257] | greater than 2
7 | O=c1[nH]nc(Cc2ccc(F)c(-c3ccc(NS(=O)(=O)CC4CCCO4)cc3)c2)c2c1CCCC2 (centres unmarked) [Compound 258] | greater than 2
8 | O=c1[nH]nc(Cc2ccc(F)c(-c3ccc(NS(=O)(=O)CC4CCOC4)cc3)c2)c2c1CCCC2 (centres unmarked) [Compound 259] | greater than 2
9 | O=c1[nH]nc(Cc2ccc(F)c(-c3ccc(NS(=O)(=O)CC4CCOCC4)cc3)c2)c2c1CCCC2 [Compound 260] | greater than 2
10 | O=c1[nH]nc(Cc2ccc(F)c(-c3ccc(NS(=O)(=O)CC4CCCCC4)cc3)c2)c2c1CCCC2 [Compound 261] | greater than 2
11 | O=c1[nH]nc(Cc2ccc(F)c(-c3ccc(NS(=O)(=O)CC4CC4)cc3)c2)c2c1CCCC2 [Compound 263] | greater than 2

— patent US20080280910A1, “PHTHALAZINONE DERIVATIVES” (priority 2007, published 2008)
